Data taken from PubChem BioAssay AID2073 (Sanford-Burnham Center for Chemical Genomics, 2009).
Among all 290,000 compounds or so, about 570 (0.2%) were called active. The inconclusive results got no clear call from the source; some entries with a clear call stand among them for comparison. Rule as the data show it: active = inhibition mostly above about 51% (no sharp cut-off); inconclusive = no clear call, values can overlap the other calls; inactive = mostly below about 53%.

Amino acid sequences for entries named in this document (tags omitted).
UniProt Q00975, whole entry, looked up: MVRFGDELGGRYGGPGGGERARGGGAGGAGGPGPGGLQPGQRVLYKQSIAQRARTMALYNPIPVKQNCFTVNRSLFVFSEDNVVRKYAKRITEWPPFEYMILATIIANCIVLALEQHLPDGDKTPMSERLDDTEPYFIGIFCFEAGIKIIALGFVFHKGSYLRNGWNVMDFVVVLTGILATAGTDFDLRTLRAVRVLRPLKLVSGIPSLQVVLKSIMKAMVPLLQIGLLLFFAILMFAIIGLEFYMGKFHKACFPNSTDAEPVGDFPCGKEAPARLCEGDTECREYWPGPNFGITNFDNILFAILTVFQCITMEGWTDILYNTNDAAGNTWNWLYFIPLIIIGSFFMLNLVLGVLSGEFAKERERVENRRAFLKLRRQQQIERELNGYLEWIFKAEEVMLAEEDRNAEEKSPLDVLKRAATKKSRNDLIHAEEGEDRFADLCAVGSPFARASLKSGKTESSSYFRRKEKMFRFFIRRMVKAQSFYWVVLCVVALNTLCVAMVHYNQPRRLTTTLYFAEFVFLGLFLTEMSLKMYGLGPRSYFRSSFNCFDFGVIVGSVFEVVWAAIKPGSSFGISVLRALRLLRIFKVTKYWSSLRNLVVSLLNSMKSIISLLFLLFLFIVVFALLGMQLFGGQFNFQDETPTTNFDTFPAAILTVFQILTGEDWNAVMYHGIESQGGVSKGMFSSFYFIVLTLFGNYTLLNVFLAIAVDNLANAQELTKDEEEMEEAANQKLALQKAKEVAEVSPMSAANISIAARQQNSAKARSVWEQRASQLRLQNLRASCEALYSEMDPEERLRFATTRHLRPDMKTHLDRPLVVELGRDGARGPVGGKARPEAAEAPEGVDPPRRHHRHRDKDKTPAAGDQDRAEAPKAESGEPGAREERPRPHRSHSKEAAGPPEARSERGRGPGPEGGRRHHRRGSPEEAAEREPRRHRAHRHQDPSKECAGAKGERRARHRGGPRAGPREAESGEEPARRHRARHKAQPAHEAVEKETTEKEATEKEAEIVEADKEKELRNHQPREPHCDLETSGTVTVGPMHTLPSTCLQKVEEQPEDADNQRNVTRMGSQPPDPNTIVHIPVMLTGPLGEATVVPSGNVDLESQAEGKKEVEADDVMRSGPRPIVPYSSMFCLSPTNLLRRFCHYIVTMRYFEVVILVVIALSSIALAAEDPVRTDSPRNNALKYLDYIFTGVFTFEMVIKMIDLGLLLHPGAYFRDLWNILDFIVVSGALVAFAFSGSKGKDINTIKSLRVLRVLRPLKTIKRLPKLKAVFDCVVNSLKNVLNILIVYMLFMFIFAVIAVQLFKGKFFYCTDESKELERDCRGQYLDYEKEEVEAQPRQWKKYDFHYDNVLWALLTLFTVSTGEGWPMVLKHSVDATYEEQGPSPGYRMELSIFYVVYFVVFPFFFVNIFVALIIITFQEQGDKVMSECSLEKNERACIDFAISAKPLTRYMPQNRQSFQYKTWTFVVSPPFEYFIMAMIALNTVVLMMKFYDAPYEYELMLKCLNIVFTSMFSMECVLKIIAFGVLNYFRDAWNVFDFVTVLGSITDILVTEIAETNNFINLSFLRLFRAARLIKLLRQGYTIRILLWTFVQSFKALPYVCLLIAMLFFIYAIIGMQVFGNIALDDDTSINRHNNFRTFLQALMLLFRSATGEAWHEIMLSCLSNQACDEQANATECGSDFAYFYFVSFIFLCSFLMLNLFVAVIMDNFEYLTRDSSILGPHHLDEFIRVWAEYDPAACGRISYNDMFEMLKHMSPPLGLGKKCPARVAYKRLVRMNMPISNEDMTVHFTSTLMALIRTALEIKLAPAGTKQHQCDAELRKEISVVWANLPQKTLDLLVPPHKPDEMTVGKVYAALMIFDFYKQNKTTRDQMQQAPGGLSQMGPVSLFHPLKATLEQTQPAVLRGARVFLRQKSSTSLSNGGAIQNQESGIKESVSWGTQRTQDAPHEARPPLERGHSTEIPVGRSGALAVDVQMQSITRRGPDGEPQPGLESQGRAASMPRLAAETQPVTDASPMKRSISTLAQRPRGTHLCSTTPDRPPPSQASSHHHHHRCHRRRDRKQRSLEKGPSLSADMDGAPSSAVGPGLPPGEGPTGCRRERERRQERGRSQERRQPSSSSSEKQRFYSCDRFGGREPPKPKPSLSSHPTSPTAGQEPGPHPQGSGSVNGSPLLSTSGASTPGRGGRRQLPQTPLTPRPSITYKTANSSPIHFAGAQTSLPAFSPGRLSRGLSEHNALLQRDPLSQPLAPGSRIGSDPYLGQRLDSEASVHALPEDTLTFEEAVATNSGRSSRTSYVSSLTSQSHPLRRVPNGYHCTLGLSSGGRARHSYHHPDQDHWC

target: Voltage-dependent N-type calcium channel subunit alpha-1B (Homo sapiens) (UniProt Q00975); assay: disruptors of CaV2.2 binding to Mint1 – biochemical, HTRF (AID 2073); conditions: HTRF protein-protein interaction, Mint1-CaV2.2; at 20 µM; active compounds read high

Row | SMILES | inhibition
1 | CCCCOc1ccc(-c2c(C(=O)Nc3ccccc3)c(C)[nH]c(=S)c2C#N)cc1 | inconclusive: 50.1%
2 | CCOc1ccc(N/C=C/C(=O)c2ccc(C)cc2)c([N+](=O)[O-])c1 | inconclusive: 55.8%
3 | COc1ccccc1NC(=O)C1=C(C)NC(=O)NC1c1ccccc1[N+](=O)[O-] (stereo unspecified) | active: 55.2%
4 | O=C(CSc1nc(-c2ccc(F)cc2)nc2c1Cc1ccccc1O2)Nc1ccc(C(=O)O)cc1 | inconclusive: 101%
5 | CCCCOC(=O)c1sc2nc(C)cc(C)c2c1N | inconclusive: 94.2%
6 | O=C(Nc1c(C(=O)N2CCOCC2)cnn1-c1ccccc1)c1ccco1 | inconclusive: 55%
7 | Cc1cc(Br)ccc1OCCN1CCCC1 | inactive: 1.2%
8 | CC(=O)Nc1ccc(C(=O)/C=C/c2ccco2)cc1 | inactive: 30.9%
9 | Cc1cc(C)c(NC(=S)N(Cc2cccnc2)Cc2ccco2)c(C)c1 | inactive: 0.6%
10 | N=C1S/C(=C\c2ccc(-c3ccccc3C(=O)O)o2)C(=O)N1c1ccc2c(c1)OCO2 | inactive: 17.7%
11 | CNc1nc(-c2ccc(Cl)cc2)cs1 | inconclusive: 51.3%
12 | CCOc1ccc(S(=O)(=O)N2CCC(C(=O)NCCc3ccccc3)CC2)cc1 | inconclusive: 64.9%
13 | Cc1cccn2c(=O)c3cc(S(=O)(=O)c4ccccc4)c(=N)n(Cc4ccco4)c3nc12 | inconclusive: 83.5%
14 | O=C(C1CCN(Cc2ccc(OCc3ccccc3)cc2)CC1)N1CCCC1 | inconclusive: 56.7%
15 | Cc1ccc(NC(=O)CCC(=O)N/N=C/c2cccs2)cc1 | inconclusive: 69.6%
16 | O=C(O)c1ccc(Cl)c2c1C1C=CCC1C(c1ccccn1)N2 (stereo unspecified) | inactive: 23.7%
17 | Fc1ccc(CNCc2ccc(Br)cc2)cc1 | inconclusive: 82%
18 | CCCCc1ccc(-c2csc(/C(C#N)=C/c3ccc(C)o3)n2)cc1 | inactive: 16.8%
19 | N#C/C(=C/c1ccc(N2CCOCC2)o1)c1ccc(Cl)cc1 | active: 51.9%
20 | CC(=O)c1c(O)cc(=O)n(-c2ccccc2)c1-c1cccc2ccccc12 | inconclusive: 58.8%
21 | CCc1ccc(OCC(=O)NC(NC(=S)Nc2ccccc2C)C(Cl)(Cl)Cl)cc1 (stereo unspecified) | inactive: -12.1%
22 | O=C(NCC1CCCO1)/C(=C\c1cccc([N+](=O)[O-])c1)NC(=O)c1ccccc1 (stereo unspecified) | inconclusive: 64.2%
23 | COc1cc(NC(=O)CCCn2c(=S)[nH]c3ccccc3c2=O)cc(OC)c1OC | inconclusive: 72.5%

Three compounds from above, sorted by length of the SMILES, descending:
Row | SMILES | inhibition
22 | O=C(NCC1CCCO1)/C(=C\c1cccc([N+](=O)[O-])c1)NC(=O)c1ccccc1 (stereo unspecified) | inconclusive: 64.2%
12 | CCOc1ccc(S(=O)(=O)N2CCC(C(=O)NCCc3ccccc3)CC2)cc1 | inconclusive: 64.9%
17 | Fc1ccc(CNCc2ccc(Br)cc2)cc1 | inconclusive: 82%

Next compounds follow.

Row | SMILES | inhibition
24 | CCOC(=O)CSc1nnc(CNc2ccccc2Cl)n1-c1ccccc1 | inconclusive: 80.4%
25 | COc1ccc(NC(=O)CN2C(=O)C(C)Oc3ccc(C)cc32)cc1 (stereo unspecified) | inconclusive: 54.5%
26 | Oc1ccc(N=Cc2ccc(OCc3ccccc3)cc2)cc1 | inconclusive: 57.2%
27 | COCc1ccc(C(=O)Nc2ccccc2C(=O)NCc2cccnc2)cc1 | inconclusive: 53.7%
28 | O=C1C(=O)N(CNc2ccccn2)c2ccccc21 | inconclusive: 57.8%
29 | CCCCn1c(O)c(/C=C/C=C/C=Nc2ccccc2)sc1=S | active: 71.6%
30 | N#Cc1c(Nc2ccccc2)c(/C=N/NCCO)c[nH]c1=O | inactive: -20.2%
31 | O=C(OCC1OC(n2ccc(=O)[nH]c2=O)C(O)C1OC(=O)c1ccccc1)c1ccccc1 (stereo unspecified) | inconclusive: 67.2%
32 | O=C(CN1CCN(c2nc(-c3ccc(F)cc3)cs2)CC1)Nc1ccc2c(c1)OCO2 | inconclusive: 60.1%
33 | CCc1cc(=O)oc2c(C)c(OC(C)C(=O)N3CCC[C@@H]3C(=O)O)ccc12 (stereo partly specified) | inconclusive: 64.5%
34 | COc1cc(CN(C(=O)c2ccco2)C2CCS(=O)(=O)C2)cc(OC)c1OC (stereo unspecified) | inactive: 11.2%
35 | O=C(Cn1c(=O)sc2ccccc21)Nc1ccc(S(=O)(=O)N2CCCCC2)cc1 | inactive: 18%
36 | COC(=O)c1cc(C(=O)OCC(=O)NCc2ccc3c(c2)OCO3)cc([N+](=O)[O-])c1 | inconclusive: 59%
37 | CSc1ccccc1OCc1cc(C(=O)NCc2cnc(C)cn2)no1 | inactive: 5.6%
38 | O=C(NC1CCCCC1)c1cc2ccccc2cc1O | inconclusive: 50%
39 | Cc1cccn(Cc2c(F)cccc2Cl)c1=O | inconclusive: 85.9%
40 | CCOC(=O)CNc1c(-c2ccc(F)cc2)nc2cnccn12 | inconclusive: 60.7%
41 | COc1ccc(CCNC(=O)c2ccc3c(c2)N(Cc2ccc(F)cc2)CCS3)cc1OC | inconclusive: 83.3%
42 | Cc1ccc(C)c(NC(=S)NCc2cccn2C)c1 | inconclusive: 95.3%
43 | c1ccc2c(c1)OCCOCCOCCO2 | inconclusive: 76.4%
44 | Cc1cc(C)c(S(=O)(=O)NCc2cccs2)cc1C | inconclusive: 60.3%
45 | CSc1ccccc1C(=O)NC1CCSc2ccccc21 (stereo unspecified) | inconclusive: 91.3%
46 | O=C(Nc1ccccc1)c1ccc2nc(-c3ccco3)c(-c3ccco3)nc2c1 | inactive: 57.1%

Row | SMILES | inhibition
47 | CC1CCCCN1C(=O)Nc1ccccc1Cl (stereo unspecified) | inconclusive: 51.1%
48 | Cc1cc(C(=O)NC2CCCCC2C)c2ccccc2n1 (stereo unspecified) | inconclusive: 94.6%
49 | O=C(/C=C\c1ccco1)Nc1nc(-c2ccccc2)cs1 | inactive: 0%
50 | Cc1ccccc1Cc1c(C)nc2nc(SCC(=O)NCCCN3CCCC3)nn2c1C | inconclusive: 58.3%
51 | COc1ccc(/C=C2\C(=O)ON=C2c2cccc([N+](=O)[O-])c2)cc1 | inconclusive: 69.7%
52 | COC(=O)Cc1c(C)c2ccc(O)c(CN3CCCC(C)C3)c2oc1=O (stereo unspecified) | inconclusive: 51.5%
53 | COc1ccc(NC(=O)NCCCCc2ccccc2)c(OC)c1 | inconclusive: 56.5%
54 | COc1ccc(/C(N)=N/OC(=O)CCC2CCCC2)cc1OC | inconclusive: 62.3%
55 | O=C(O)c1cc2cccc(S(=O)(=O)N3CCCCC3)c2cc1O | inconclusive: 56.9%
56 | FC(F)(F)c1ccc2c(c1)nc1n2CCCC1 | inconclusive: 50.3%
57 | O=C1/C(=C\c2cc([N+](=O)[O-])ccc2O)SC(=S)N1Cc1ccc(Cl)cc1 | inconclusive: 50.2%
58 | O=c1c2c(nc3nc(NCc4cccc5ccccc45)[nH]n13)CCC2 | inactive: 4.9%
59 | CCN1C(=O)c2cccc3c(S(=O)(=O)NCc4cccnc4)ccc1c23 | inconclusive: 55.3%
60 | O=C(NCC1CCCO1)c1cc2nc(-c3ccco3)cc(C(F)(F)Cl)n2n1 (stereo unspecified) | inconclusive: 80.6%
61 | CCCCn1nnnc1SCC(=O)NCc1ccccc1 | inconclusive: 63.3%
62 | O=C(NC(NC1CCS(=O)(=O)C1)C(=O)c1ccccc1)c1ccc(Cl)cc1 (stereo unspecified) | inconclusive: 50.9%
63 | O=C(OCCN1C(=O)c2cccc3c(N4CCOCC4)ccc(c23)C1=O)c1ccc(Cl)cc1 | inconclusive: 69.4%
64 | COc1ccccc1NC(=O)C1=C(C)NC(=O)NC1c1ccccc1F (stereo unspecified) | inactive: 6.4%
65 | CCOc1ccc(C(=O)NC(=S)NCCCN2CCOCC2)cc1 | inactive: -2.3%
66 | Cc1cc(C)n(C(N)=NC(=O)c2ccc([N+](=O)[O-])cc2)n1 | inconclusive: 61.2%
67 | COc1ccc(-n2nc3ccc(N)cc3n2)cc1Cl | inconclusive: 57.4%
68 | O=C(CSc1ccccn1)Nc1ccc(Cl)cn1 | inconclusive: 58.7%
69 | Cc1cc(-c2csc(NC(=O)c3ccc(C#N)cc3)n2)c(C)n1Cc1ccco1 | active: 74%

Among those listed so far, these contain a cyano group:
Row | SMILES | inhibition
1 | CCCCOc1ccc(-c2c(C(=O)Nc3ccccc3)c(C)[nH]c(=S)c2C#N)cc1 | inconclusive: 50.1%
18 | CCCCc1ccc(-c2csc(/C(C#N)=C/c3ccc(C)o3)n2)cc1 | inactive: 16.8%
19 | N#C/C(=C/c1ccc(N2CCOCC2)o1)c1ccc(Cl)cc1 | active: 51.9%
30 | N#Cc1c(Nc2ccccc2)c(/C=N/NCCO)c[nH]c1=O | inactive: -20.2%
69 | Cc1cc(-c2csc(NC(=O)c3ccc(C#N)cc3)n2)c(C)n1Cc1ccco1 | active: 74%

(more compounds)

Row | SMILES | inhibition
70 | CCOc1ccccc1-c1c2cc(O)c(=O)cc-2oc2cc(O)c(O)cc12 | inactive: 24.8%
71 | Cc1c(NC(=O)Nc2cccs2)cccc1[N+](=O)[O-] | inconclusive: 86.5%
72 | O=C(CN1CC(=O)Nc2ccccc21)NCCc1ccc(Cl)cc1Cl | inconclusive: 80.8%
73 | Nc1ccc2nn(-c3cccc4ccccc34)nc2c1 | inconclusive: 52.3%
74 | Cn1c(=O)c2c(nc(SCC(=O)N3c4ccccc4CCc4ccccc43)n2C)n(C)c1=O | inconclusive: 71.4%
75 | O=C(O)C1CCC(N2C(=O)C3CCCCC3C2=O)CC1 (stereo unspecified) | inactive: -2.9%
76 | COC(=O)c1ccc(/C=C/c2ccc3cccc(OC)c3n2)cc1 | inconclusive: 58.3%
77 | CCOC(=O)c1c(-c2ccc(C)cc2)csc1NC(=O)CCN1CCOCC1 | inconclusive: 90.1%
78 | COc1ccc(C)cc1Nc1nc(-c2ccccc2O)nc2ccccc12 | inconclusive: 50.2%
79 | Cc1cc(C)c(C#N)c(Nc2ccccc2Cl)n1 | inactive: 5.7%
80 | CCCn1c2ccccc2c2cnn(CC(=O)NCCN(CC)CC)c(=O)c21 | inconclusive: 77.2%
81 | O=C(O)/C=C\C(=O)NNC(=O)c1cc(-c2ccccc2)n[nH]1 | inconclusive: 67.9%
82 | O=C(O)CCCCCNC(=O)c1ccccc1Br | inconclusive: 68.1%
83 | COC(=O)C1=C(N)Oc2c(oc(CO)cc2=O)C1c1ccccc1F (stereo unspecified) | inactive: 0.2%
84 | COc1cccc(NC(=O)C(NCC2CCCCC2)c2ccccc2)c1 (stereo unspecified) | inconclusive: 83.3%
85 | CCN(CC)C(=O)c1c([N+](=O)[O-])c(C(C)(C)C)nn1C | inconclusive: 59.9%
86 | CCCCc1[nH]nc2c1C1(C(=O)N(CC)c3ccccc31)C(C#N)=C(N)O2 (stereo unspecified) | inactive: -5.8%
87 | O=S(=O)(/N=C(/Nc1ccccc1)c1ccccc1O)c1ccccc1 | inactive: -7.3%
88 | O=C1C2C3C=CC(C3)C2C(=O)N1c1ccc2c(c1)OCO2 (stereo unspecified) | inconclusive: 52.9%
89 | O=C(CCCCCn1c(=S)[nH]c2ccc(N3CCOCC3)cc2c1=O)NC1CCN(Cc2ccccc2)CC1 | inconclusive: 61%
90 | O=C(N/N=C/c1cc(Cl)c(O)c(Cl)c1)c1cc2c(ccc3ccccc32)o1 | inconclusive: 52.6%
91 | COc1ccccc1/C=N/NC(=O)c1ccc(CN2C(=O)c3cccc4cccc2c34)cc1 | inconclusive: 60.8%
